From paper PMC11663349 come the findings set out here.

The chains behind the UniProt entries cited, without tags or fusion partners.
UniProt Q8N6T7: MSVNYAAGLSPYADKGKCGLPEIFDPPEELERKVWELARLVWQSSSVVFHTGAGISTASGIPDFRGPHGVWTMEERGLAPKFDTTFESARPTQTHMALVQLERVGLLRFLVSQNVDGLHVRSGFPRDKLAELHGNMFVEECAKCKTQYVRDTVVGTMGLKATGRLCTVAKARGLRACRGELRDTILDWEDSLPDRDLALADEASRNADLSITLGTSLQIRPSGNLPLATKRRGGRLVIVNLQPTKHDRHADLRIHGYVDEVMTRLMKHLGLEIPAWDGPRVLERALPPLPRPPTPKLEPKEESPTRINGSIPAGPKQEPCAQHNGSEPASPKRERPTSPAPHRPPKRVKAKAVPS
UniProt P46379: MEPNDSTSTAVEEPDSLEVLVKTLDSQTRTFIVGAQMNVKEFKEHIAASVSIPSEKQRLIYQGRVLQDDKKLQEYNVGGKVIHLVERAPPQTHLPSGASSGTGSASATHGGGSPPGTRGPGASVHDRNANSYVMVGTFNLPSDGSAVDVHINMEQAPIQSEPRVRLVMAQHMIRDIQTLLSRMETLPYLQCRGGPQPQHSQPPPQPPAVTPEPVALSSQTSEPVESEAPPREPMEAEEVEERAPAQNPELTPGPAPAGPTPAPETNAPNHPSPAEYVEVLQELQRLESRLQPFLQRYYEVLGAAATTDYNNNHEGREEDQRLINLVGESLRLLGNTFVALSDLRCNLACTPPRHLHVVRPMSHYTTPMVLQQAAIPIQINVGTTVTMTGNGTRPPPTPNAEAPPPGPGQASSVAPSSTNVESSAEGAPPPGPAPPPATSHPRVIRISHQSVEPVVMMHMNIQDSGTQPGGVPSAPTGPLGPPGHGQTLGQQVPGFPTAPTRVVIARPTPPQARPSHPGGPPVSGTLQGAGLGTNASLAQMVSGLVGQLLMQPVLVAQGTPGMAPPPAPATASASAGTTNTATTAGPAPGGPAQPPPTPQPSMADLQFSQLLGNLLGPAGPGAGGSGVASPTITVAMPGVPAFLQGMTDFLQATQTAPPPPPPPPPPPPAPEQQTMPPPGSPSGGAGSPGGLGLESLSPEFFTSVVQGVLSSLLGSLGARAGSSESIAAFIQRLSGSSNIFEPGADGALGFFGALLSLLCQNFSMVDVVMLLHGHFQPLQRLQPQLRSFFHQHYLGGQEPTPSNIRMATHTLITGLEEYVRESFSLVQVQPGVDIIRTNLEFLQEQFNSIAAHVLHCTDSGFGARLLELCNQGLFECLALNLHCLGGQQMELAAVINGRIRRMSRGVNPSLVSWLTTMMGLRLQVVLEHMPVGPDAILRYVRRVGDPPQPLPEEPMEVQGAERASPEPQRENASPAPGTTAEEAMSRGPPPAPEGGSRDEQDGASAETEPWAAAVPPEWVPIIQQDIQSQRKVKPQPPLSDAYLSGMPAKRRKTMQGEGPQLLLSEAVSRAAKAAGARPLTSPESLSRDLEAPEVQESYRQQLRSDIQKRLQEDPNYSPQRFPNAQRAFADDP
UniProt P0CJ78: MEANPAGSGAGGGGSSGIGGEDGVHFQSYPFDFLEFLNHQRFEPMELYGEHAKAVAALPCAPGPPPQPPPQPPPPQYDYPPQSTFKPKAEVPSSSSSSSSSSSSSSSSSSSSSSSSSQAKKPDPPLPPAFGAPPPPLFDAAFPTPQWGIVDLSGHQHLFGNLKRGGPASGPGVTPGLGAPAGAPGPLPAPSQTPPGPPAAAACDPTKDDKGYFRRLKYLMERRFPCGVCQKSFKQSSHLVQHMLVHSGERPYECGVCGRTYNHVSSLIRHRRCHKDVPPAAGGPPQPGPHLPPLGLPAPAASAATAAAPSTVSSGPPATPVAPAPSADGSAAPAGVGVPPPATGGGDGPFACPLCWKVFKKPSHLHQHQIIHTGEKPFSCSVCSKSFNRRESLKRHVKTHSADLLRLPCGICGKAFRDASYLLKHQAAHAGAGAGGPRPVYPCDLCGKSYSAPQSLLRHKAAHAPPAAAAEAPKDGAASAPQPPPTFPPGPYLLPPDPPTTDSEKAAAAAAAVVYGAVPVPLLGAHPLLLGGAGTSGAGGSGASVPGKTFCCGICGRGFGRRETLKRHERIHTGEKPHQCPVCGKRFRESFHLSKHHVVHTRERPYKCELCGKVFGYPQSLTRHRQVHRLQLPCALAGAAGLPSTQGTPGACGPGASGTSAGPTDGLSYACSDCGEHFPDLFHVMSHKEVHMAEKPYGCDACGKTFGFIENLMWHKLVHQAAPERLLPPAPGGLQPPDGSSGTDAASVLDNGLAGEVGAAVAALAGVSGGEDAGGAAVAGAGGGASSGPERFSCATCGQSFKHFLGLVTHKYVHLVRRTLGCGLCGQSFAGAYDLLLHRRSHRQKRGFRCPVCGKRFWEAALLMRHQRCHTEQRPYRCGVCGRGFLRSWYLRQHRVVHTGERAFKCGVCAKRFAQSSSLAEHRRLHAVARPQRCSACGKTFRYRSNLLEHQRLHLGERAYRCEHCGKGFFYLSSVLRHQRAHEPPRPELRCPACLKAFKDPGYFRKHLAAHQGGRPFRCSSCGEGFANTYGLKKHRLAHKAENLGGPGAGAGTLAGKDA

First the molecules themselves.
B1: UHRF1 (Ubiquitin-like, containing PHD and RING Finger domains 1) (protein, UniProt Q96T88 1-793)
chain: MWIQVRTMDGRQTHTVDSLSRLTKVEELRRKIQELFHVEPGLQRLFYRGKQMEDGHTLFDYEVRLNDTIQLLVRQSLVLPHSTKERDSELSDTDSGCCLGQSESDKSSTHGEAAAETDSRPADEDMWDETELGLYKVNEYVDARDTNMGAWFEAQVVRVTRKAPSRDEPCSSTSRPALEEDVIYHVKYDDYPENGVVQMNSRDVRARARTIIKWQDLEVGQVVMLNYNPDNPKERGFWYDAEISRKRETRTARELYANVVLGDDSLNDCRIIFVDEVFKIERPGEGSPMVDNPMRRKSGPSCKHCKDDVNRLCRVCACHLCGGRQDPDKQLMCDECDMAFHIYCLDPPLSSVPSEDEWYCPECRNDASEVVLAGERLRESKKKAKMASATSSSQRDWGKGMACVGRTKECTIVPSNHYGPIPGIPVGTMWRFRVQVSESGVHRPHVAGIHGRSNDGAYSLVLAGGYEDDVDHGNFFTYTGSGGRDLSGNKRTAEQSCDQKLTNTNRALALNCFAPINDQEGAEAKDWRSGKPVRVVRNVKGGKNSKYAPAEGNRYDGIYKVVKYWPEKGKSGFLVWRYLLRRDDDEPGPWTKEGKDRIKKLGLTMQYPEGYLEALANREREKENSKREEEEQQEGGFASPRTGKGKWKRKSAGGGPSRAGSPRRTSKKTKVEPYSLTAQQSSLIREDKSNAKLWNEVLASLKDRPASGSPFQLFLSKVEETFQCICCQELVFRPITTVCQHNVCKDCLDRSFRAQVFSCPACRYDLGRSYAMQVNQPLQTVLNQLFPGYGNGR

Results are given in words; binding and its absence hold for the method and conditions named. In cells and extracts the contact can be indirect. Here binding means that the protein was enriched with, or labelled near, the bait; the list need not be complete.

This assay deals with FLAG-HA-SIRT6 (human) (UniProt Q8N6T7). Description: affinity purification with mass spectrometry; Tandem Affinity Purification of FLAG-HA-SIRT6 from transfected 293T cells; proteins of the complex identified.
On to BAG6 (from UniProt P46379 1-1132), for which the binding entry was “binds”.

On to ZNF865 (from UniProt P0CJ78 1-1059), for which the binding result was “binds”. To B1 belongs “binds”.
